Measured values: paper doi:10.1101/2024.03.05.583639
Results are given in words; binding and its absence hold for the method and conditions named. Binding seen in cells or lysates may run through a third protein. Some binding calls cover weakened binding; strength is not graded here.

The chains behind the UniProt entries cited, without tags or fusion partners. Residues count along the entry.
UniProt P27512, 20-289: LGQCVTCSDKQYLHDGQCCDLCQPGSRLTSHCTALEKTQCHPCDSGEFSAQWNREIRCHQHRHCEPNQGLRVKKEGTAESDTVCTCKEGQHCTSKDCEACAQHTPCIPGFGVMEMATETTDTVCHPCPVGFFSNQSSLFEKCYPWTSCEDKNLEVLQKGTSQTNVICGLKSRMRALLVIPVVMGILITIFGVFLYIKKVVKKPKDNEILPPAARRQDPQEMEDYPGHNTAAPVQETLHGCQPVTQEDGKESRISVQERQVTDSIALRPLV

Biological target: T1, CKLF-like MARVEL transmembrane domain-containing protein 6 (CMTM6), endogenous in mouse splenocytes (mouse (endogenous in splenocytes)) (UniProt Q9CZ69)
T1 sequence: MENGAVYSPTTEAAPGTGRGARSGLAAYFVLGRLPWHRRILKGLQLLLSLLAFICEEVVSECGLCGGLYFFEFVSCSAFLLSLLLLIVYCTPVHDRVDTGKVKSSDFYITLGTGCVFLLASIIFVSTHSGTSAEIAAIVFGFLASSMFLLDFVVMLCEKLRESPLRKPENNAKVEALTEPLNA
Test: co-IP

## CD40, endogenous in mouse splenocytes (from UniProt P27512 20-289) (receptor)
  binding: binds
